For 2 substances, binding results are on record in paper PMC9663158.

Amino acid sequences for entries named in this document (tags omitted).
UniProt Q13547: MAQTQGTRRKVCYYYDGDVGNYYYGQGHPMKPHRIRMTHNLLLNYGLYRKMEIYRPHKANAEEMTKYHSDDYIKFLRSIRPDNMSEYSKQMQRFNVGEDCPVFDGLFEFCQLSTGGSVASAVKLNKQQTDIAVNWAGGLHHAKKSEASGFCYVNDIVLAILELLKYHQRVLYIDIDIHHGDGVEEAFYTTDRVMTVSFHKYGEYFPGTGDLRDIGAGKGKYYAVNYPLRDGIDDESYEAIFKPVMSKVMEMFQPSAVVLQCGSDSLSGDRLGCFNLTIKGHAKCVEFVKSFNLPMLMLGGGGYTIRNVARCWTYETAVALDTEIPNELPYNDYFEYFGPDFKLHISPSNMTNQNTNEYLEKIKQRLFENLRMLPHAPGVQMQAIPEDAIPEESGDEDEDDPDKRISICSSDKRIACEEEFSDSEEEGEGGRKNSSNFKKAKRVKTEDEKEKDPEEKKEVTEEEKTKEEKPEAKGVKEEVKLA
UniProt P46937: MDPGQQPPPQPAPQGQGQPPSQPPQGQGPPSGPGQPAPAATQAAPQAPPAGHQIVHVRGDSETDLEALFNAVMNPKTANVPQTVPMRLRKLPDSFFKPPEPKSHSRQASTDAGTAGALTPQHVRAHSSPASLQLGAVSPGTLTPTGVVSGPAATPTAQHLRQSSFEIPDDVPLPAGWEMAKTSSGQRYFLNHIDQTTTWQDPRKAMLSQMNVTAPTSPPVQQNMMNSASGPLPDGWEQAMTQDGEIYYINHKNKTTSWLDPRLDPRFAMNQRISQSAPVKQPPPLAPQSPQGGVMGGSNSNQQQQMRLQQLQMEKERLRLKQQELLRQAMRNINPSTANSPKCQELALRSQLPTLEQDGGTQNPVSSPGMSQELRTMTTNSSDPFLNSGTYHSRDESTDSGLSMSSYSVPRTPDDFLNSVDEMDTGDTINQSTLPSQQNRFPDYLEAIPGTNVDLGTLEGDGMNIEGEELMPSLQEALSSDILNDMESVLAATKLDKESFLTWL

This assay has as its target T1, RAD21 (endogenous) (human (endogenous in OVCAR8, OVCAR5 and HEY)) (UniProt O60216).
T1 sequence: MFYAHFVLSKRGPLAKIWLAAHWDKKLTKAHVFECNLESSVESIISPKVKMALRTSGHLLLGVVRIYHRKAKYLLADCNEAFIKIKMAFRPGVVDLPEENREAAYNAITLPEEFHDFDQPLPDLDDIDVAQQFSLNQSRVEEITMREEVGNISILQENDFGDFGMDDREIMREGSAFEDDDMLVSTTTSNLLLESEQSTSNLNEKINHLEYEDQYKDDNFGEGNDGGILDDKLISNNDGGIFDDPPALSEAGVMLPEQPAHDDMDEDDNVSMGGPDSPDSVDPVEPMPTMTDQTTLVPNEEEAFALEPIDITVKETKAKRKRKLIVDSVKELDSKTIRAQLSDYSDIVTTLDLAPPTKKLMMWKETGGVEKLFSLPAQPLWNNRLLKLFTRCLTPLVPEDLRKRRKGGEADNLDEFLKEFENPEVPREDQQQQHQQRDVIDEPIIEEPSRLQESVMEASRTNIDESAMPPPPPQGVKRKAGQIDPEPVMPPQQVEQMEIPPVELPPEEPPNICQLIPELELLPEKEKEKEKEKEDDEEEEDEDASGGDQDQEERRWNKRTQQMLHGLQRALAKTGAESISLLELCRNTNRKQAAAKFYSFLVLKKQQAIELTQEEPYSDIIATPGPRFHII
In words: co-IP; endogenous proteins in cell extracts of OVCAR8, OVCAR5 and HEY cells; IP with anti-RAD21, anti-TEAD4 or anti-IgG; IP lysis buffer 50 mM Tris-HCl, 150 mM NaCl, 1.0% NP-40; protein G Dynabeads overnight at 4°C; immunoblotting. (In general: A western blot detects proteins with antibodies after separation by electrophoresis.)

Results are given in words; binding and its absence hold for the method and conditions named. Binding seen in cells or lysates may run through a third protein. Some results given as binding are weak or reduced against the parent protein; the word gives no strength.

“HDAC1 (endogenous) (from UniProt Q13547 1-482)”: the binding result was “binds”. Regarding “YAP (endogenous) (from UniProt P46937 1-504)”, the binding result is given as “binds”.
